Measured values taken from paper PMC8213676.
Construct, isoform or probe ends are uncertain for at least one entry. Weaker means in comparison with the reference protein, sequence or condition of that experiment.

Amino acid sequences for entries named in this document (tags omitted). A change or cut given only in a name is not applied to a line headed by its entry.
UniProt Q6Z156: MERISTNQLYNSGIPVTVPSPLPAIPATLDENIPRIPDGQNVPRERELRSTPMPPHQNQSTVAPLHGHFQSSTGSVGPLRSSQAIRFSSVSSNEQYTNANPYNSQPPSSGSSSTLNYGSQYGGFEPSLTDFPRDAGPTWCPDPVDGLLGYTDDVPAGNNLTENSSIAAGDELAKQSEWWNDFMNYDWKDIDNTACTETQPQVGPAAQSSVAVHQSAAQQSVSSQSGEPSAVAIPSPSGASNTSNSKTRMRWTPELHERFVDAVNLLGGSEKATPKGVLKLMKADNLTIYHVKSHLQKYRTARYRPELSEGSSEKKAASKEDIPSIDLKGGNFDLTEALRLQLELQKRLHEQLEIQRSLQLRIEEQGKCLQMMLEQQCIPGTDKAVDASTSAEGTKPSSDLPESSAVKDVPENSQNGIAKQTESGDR

Biological target: OsPHR2-6XHIS (Oryza sativa) (UniProt Q6Z156)
Experiment: EMSA
Details: 15 mM HEPES pH 8.0, 30 mM KCl, 1 mM MgCl2, 0.2 mM EDTA, 0.02 mM DTT, 0.6% glycerol, 1 ug poly(dI-dC) in 20 ul, 20 °C 30 min (1 h with 15 mM NaH2PO4 for inhibition assay), recombinant protein, residues 1-426, protein details: 6xHis (pET28a), label: DIG 3' end

Q: Does “TATCCCCGTCACGAATATTCCTCTTCCTCC (double strand) [OsSPX2 promoter P1BS probe]” bind (plus 7.5 ug OsSPX1-6XHIS and 7.5 ug OsJAZ11-GST, 15 mM NaH2PO4, no effect of OsJAZ11 on inhibition)?
A: Result: binds more weakly

Q: Does “TATCCCCGTCACGAATATTCCTCTTCCTCC (double strand) [OsSPX2 promoter P1BS probe]” bind (plus 7.5 ug OsSPX1-6XHIS, 15 mM NaH2PO4)?
A: Result: binds more weakly
